Values joined by “and” are separate entries in the source; they are usually repeats but may differ in a detail not shown here. Equal entries are not always repeated.
Experiments:
[1] = Stripping of Fe (III) from hydroxamic acids with sulfuric acid (Table 10)
[2] = Gallium extraction with an N-alkyl hydroxamic acid as modifier (Example 15); conditions: 40% extractant
[3] = Minimum pH at which 50% of Fe (III) was extractible (Table 11)
[4] = Extraction with different modifiers, Fe (Example 16); conditions: modifier (20%) with 40% N-methyl naphthenohydroxamic acid
[5] = Extraction with different modifiers, Al (Example 16); conditions: modifier (20%) with 40% N-methyl naphthenohydroxamic acid
[6] = Extraction with different modifiers, P (Example 16); conditions: modifier (20%) with 40% N-methyl naphthenohydroxamic acid
[7] = Extraction with different modifiers, Zn (Example 16); conditions: modifier (20%) with 40% N-methyl naphthenohydroxamic acid
[8] = Extraction with 40% N-methyl naphthenohydroxamic acid and different modifiers, Ga (Example 16); conditions: modifier (20%) with 40% N-methyl naphthenohydroxamic acid; pH 0.99, 60 °C, 10 min
[9] = Same extraction/wash/strip cycle, zinc (Examples 1-6)
[10] = Same extraction/wash/strip cycle, aluminum (Examples 1-6)
[11] = Same extraction/wash/strip cycle, iron (Examples 1-7); conditions: for Fe concentration in H2SO4 stripping solution / Fe Strip: 30% H2SO4; for Fe stripping efficiency: 30% sulfuric acid; for Fe Extraction / Fe Yield / Fe Strip: Table 3 summary; for Fe extracted: aqueous solution after extraction
[12] = Stirred-beaker extraction, 2% H2SO4 wash and 30% H2SO4 strip of gallium from phosphate treater dust leachate (Examples 1-7); conditions: for Ga Yield / Ga Strip / Ga Extraction: Table 3 summary; for Ga Strip: 30% H2SO4; for Ga Strip / Ga Extraction: time in parentheses in table; for Ga removed in washing: three washes with 2% (dilute) sulfuric acid
[13] = Gallium extraction with extractant and modifier (Example 14)
[14] = Comparative extraction and stripping, Al (Example 11)
[15] = Comparative extraction and stripping, Ga (Example 11)
[16] = Comparative extraction and stripping, Fe (Example 11)
[17] = modifier nonylphenol, percentages by line, 60 °C, pH 1

CCCCCCCCCC(=O)N(C)O [N-methyldecanohydroxamic acid]
% STRIPPED (Fe (III)) ([1]; strip H2SO4 100 g/l): > 98%
% EGa ([2]; no modifier, pH 1.02, 60 °C): 63.0%
pH1/2 (minimum pH at which 50% of Fe (III) was extractible) [3]: 1.08

CCCCCCCC(=O)N(C)O [N-methyloctano HA]
% STRIPPED (Fe (III)) ([1]; strip H2SO4 150 g/l): 94%

CCCCCCCCOP(=O)(O)Oc1ccccc1 [Octyl, phenyl hydrogenphosphate]
% Extracted Fe [4]: 50%
% Extracted Al [5]: 0%
% Extracted P [6]: 0%
% Extracted Zn [7]: 10%
% Extracted Ga [8]: 66%

N-ethylnaphthenohydroxamic acid
Zn extracted [9]: ≤ 1%
overall yield of Zn [9]: 0.002%
Zn concentration in aqueous solution after extraction ([9]; Table 2): ≥ 53,222 ppm
Zn concentration in washings ([9]; Table 2, 2% sulfuric acid): 226 ppm
Zn stripping % in washings ([9]; Table 2, 2% sulfuric acid): 99.6%
Zn concentration in H2SO4 stripping solution ([9]; Table 2, 30% H2SO4): 1 ppm
Zn stripping % ([9]; Table 2, 30% H2SO4): 0.4%
Al extracted [10]: 10%
overall yield of Al [10]: 0.1%
Al concentration in aqueous solution after extraction ([10]; Table 2): 2020 ppm
Al concentration in washings ([10]; Table 2, 2% sulfuric acid): 11.3 ppm
Al stripping % in washings ([10]; Table 2, 2% sulfuric acid): 85%
Al stripping % ([10]; Table 2, 30% H2SO4): 17%
Fe concentration in aqueous solution after extraction [11]: 1900 ppm
overall yield of Fe [11]: 3%
Fe concentration in H2SO4 stripping solution [11]: ~ 84 ppm
Fe stripping efficiency [11]: ~ 7%
Fe concentration in washings ([11]; Table 2, 2% sulfuric acid): 4.3 ppm
Fe stripping % in washings ([11]; Table 2, 2% sulfuric acid): .36%
Fe Extraction [11]: 39%
Fe Yield [11]: 3%
Fe Strip [11]: 7%
Fe extracted [11]: 39%
overall yield (recovery) of Ga from extraction, washing and stripping [12]: 42%
Ga stripped ([12]; 30% H2SO4, 5 minutes): 68%
Ga stripped ([12]; 30% H2SO4, 20 minutes): 79%
Ga stripped ([12]; 30% H2SO4, 25 minutes): 71%
Ga Yield [12]: 42%
Ga Strip [12]: 71%
Ga Extraction [12]: 61%
Ga removed in washing [12]: 2%

N-methyl isostearo-hydroxamic acid
% EGa ([13]; modifier N-methyl-hexano HA 19.8%): 72.2%
% EGa ([13]; modifier Sterox ND 19.8%): 27.2%
% EGa ([13]; modifier dodecylphenol 20.1%): 90.4%
% EGa ([13]; modifier neotridecano acid 19.8%): 58.0%
% EGa [13, 17]: 91.2%

N-methyl isostearohydroxamic acid
% EGa ([2]; modifier N-methyldecanohydroxamic acid 20%): 68.6%
% EGa ([2]; modifier N-methyldodecyl-hydroxamic acid 20%): 50.1%
% EGa ([2]; no modifier, pH 1.02, 60 °C): 52.1%
% EGa ([13]; modifier nonylphenol 23.5% & 20% neotridecano acid): 93.7%
% EGa [13, 17]: 92.6% and 95.5%
% EGa ([13]; modifier printed as ditto mark under none, 20%): 92.6%
% EGa ([13]; no modifier, 60 °C, pH 1, 10 min): 70%

N-methyl naphtheno hydroxamic acid
% EGa [13, 17]: 84.4%

N-methylneodecanohydroxamic acid
overall yield of Zn [9]: 0.03%
overall yield of Al [10]: near zero
overall yield of Fe [11]: 0.2%
Fe Extraction [11]: 2%
Fe Yield [11]: 2%
overall yield (recovery) of Ga from extraction, washing and stripping [12]: 16%
Ga stripped ([12]; 30% H2SO4, 5 minutes): 84%
Ga stripped ([12]; 30% H2SO4, 15 minutes): completed in 15 minutes
Ga extracted ([12]; 5 minutes): 3%
Ga extracted ([12]; 1.5 hours): 16%
Ga Yield [12]: 16%
Ga Strip [12]: 100%
Ga Extraction [12]: 16%

N-n-propylnaphthenohydroxamic acid
Zn extracted [9]: 5%
Al extracted [10]: 8%
Fe Extraction [11]: 3%
Fe Yield [11]: 9%
Fe Strip [11]: 100%
Fe extracted [11]: 3%
Ga stripped ([12]; 30% H2SO4, 5 minutes): 77%
Ga stripped ([12]; 30% H2SO4, 15 minutes): 74%
Ga extracted ([12]; 5 minutes): 8%
Ga extracted ([12]; 10 minutes): 25%
Ga extracted ([12]; 20 minutes): 54%
Ga extracted ([12]; 25 minutes): 60%
Ga extracted ([12]; 35 minutes): 65%
Ga Yield [12]: 50%
Ga Strip [12]: 77%
Ga Extraction [12]: 65%
Ga removed in washing [12]: 3%

naphthenohydroxamic acid [reference compound]
% stripped in 18 hours, Al ([14]; Table 8): ~ 0%
% extrac. in 15 min., Al ([14]; feed pH 1.49): 65.2%
Zn extracted [9]: 5%
Ga removed from the organic medium by stripping ([15]; 2M H2SO4/2M H3PO4, 70 minutes): 88.5%
additional Ga removed from the organic medium ([15]; 10N H2SO4 added, additional 90.2 hours): 9.5%
% stripped in 18 hours, Ga ([15]; Table 8): 88.5%
% extrac. in 15 min., Ga ([15]; feed pH 1.49): 100%
Al extracted [10]: 4%
overall yield of Fe [11]: 10.3%
Fe stripping efficiency [11]: 29%
Fe Extraction [11]: 35%
Fe Yield [11]: 10.3%
Fe Strip [11]: 29%
Fe extracted [11]: 35%
Ga stripped ([12]; 30% H2SO4, 5 minutes): 34%
Ga stripped ([12]; 30% H2SO4, 15 minutes): 48%
Ga stripped ([12]; 30% H2SO4, 30 minutes): 58%
Ga stripped ([12]; 30% H2SO4, 1.25 hour): 77%
Ga stripped ([12]; 30% H2SO4, 1.5 hour): 78%
Ga stripped ([12]; 30% H2SO4, one hour (60 minutes)): 69%
Ga extracted ([12]; 5 minutes): 99%
Ga Yield [12]: 78%
Ga Strip [12]: 78%
Ga Extraction [12]: 99%
Ga removed in washing [12]: no Ga was removed in the washings
% stripped in 18 hours, Fe ([16]; Table 8): 79.3%
% extrac. in 15 min., Fe ([16]; feed pH 1.49): 100%

neodecanohydroxamic acid [reference compound]
Fe concentration in aqueous solution after extraction [11]: 480 ppm
Fe concentration in H2SO4 stripping solution [11]: 4.4 ppm
Fe stripping efficiency [11]: 0.2%
Fe Extraction [11]: 79%
Fe Yield [11]: 0.2%
Fe Strip [11]: 0.2%
Fe extracted [11]: 79%
Ga stripped ([12]; 30% H2SO4, three hours): 4%
Ga extracted ([12]; 5 minutes): 99%
Ga Yield [12]: 4%
Ga Strip [12]: 4%
Ga Extraction [12]: 99%
Ga removed in washing [12]: about 1%

neotridecanohydroxamic acid
% STRIPPED (Fe (III)) ([1]; strip H2SO4 150 g/l): 36%
pH1/2 (minimum pH at which 50% of Fe (III) was extractible) [3]: < 0

From patent publication US4943646A, “Gallium complexes and solvent extraction of gallium” (Monsanto Company, priority 1987, dated 1990)
